Substitutions are numbered along the chain they refer to. These are yes or no findings as the source states them, for the method shown. Some results given as binding are weak or reduced against the parent protein; the word gives no strength.
B1: anti-c-Kit single domain antibody Clone ID # 408198 (VHH)
VHH: QLQLQESGPGLVKPSETLSLTCTVSGGSISSSSYYWGWIRQPPGKGLEWIGSIDYNGGTYNNPSLKSRVTISVDTSKNQFSLKLSYVTAADTAVYYCARQNPRRYASGASDYRGQGTLVTVSS
notes: also called F18 family
B2: anti-c-Kit single domain antibody Clone ID # 408366 (VHH)
VHH: EVQLLESGGGLVQPGGSLRLSCAASGLTISTYAMSWVRQAPGKGLEWVSAISTGGSSTYYADSVKGRFTISRDNSKNTLYLQMNSLRAEDTAVYYCATGYDSSGHYYGGFDYRGQGTLVTVSS
notes: also called F06 family
B3: anti-c-Kit single domain antibody Clone ID # 407921 (VHH)
VHH: B2 VHH with L27F, I29F, S30D, T31S, T53V, G54R, S56G, Y95S, S102P
notes: also called F06 family

Amino acid sequences for entries named in this document (tags omitted). A change or cut given only in a name is not applied to a line headed by its entry.
UniProt P10721: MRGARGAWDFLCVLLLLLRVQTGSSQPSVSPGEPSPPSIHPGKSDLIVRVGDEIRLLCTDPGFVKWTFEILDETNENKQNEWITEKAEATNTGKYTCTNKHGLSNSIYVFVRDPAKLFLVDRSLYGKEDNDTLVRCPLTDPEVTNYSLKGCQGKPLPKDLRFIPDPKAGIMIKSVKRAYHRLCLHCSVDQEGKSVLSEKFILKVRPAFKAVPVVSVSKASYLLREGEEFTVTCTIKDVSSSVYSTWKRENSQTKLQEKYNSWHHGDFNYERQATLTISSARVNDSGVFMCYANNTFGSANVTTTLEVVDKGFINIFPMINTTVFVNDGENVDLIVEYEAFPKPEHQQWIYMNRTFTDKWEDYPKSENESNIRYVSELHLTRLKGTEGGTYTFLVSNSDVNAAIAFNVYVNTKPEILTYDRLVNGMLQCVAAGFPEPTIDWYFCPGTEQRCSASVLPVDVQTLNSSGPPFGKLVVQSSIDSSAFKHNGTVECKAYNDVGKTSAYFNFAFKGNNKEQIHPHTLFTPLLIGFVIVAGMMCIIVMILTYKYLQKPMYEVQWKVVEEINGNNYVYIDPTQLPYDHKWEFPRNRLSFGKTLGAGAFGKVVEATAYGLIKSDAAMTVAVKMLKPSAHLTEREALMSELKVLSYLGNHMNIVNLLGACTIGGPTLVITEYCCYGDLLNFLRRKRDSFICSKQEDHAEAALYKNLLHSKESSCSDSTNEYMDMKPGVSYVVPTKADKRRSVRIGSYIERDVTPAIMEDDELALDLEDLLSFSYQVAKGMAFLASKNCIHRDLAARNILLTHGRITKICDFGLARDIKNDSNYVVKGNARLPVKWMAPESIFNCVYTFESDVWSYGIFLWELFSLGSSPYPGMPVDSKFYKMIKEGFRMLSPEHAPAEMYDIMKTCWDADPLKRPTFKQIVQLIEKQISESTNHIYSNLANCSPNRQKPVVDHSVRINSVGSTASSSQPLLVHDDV

These binders were tested against T1, human c-Kit expressed on NOMO-1 cells (human, UniProt P10721 26-976) (assay: flow cytometry on NOMO-1 cells expressing human c-Kit, PE-conjugated secondary antibody, PE MFI as fold over background).
T1 construct: Endogenous c-Kit of the NOMO-1 AML cell line

binding, binds:
B1
B2
B3

Source: patent publication US20250367237A1 (TENEOBIO, published 2025)
